This is one part of the list.
Assays:
Assay in all cases: log2 fold change, soluble protein after heating vs DMSO (PISA); higher = thermal stabilisation; K562 cells, 10 uM, 30 min; active = over 0.2 and 3.5 SD of the protein, either way, in both replicates (recomputed)
[1] = compound: CS(=O)(=O)c1ccc(-c2cnc(N)c(C(=O)Nc3ccccc3)n2)cc1
Summary of the method: (§1)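 Thermal stability values are relative to control samples and come from duplicates. They are expressed as log2 fold changes. For measurement, K562 cells (2×10^6 cells/mL) received 10 μM compound for 30 min, and aliquots were heated for 3 min over 48°C-58°C, pooled, and extracted at 4°C in PBS with 0.5% NP-40. Soluble protein, the supernatant after 21,000xg for 90 min, was quantified by TMTpro 16plex LC-MS/MS with equalised channel sums.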

Chains of the proteins cited; added tags and fusions are not shown. Lines headed by an entry give the natural chain unless they say otherwise; changes in a name come on top.
UniProt Q04864: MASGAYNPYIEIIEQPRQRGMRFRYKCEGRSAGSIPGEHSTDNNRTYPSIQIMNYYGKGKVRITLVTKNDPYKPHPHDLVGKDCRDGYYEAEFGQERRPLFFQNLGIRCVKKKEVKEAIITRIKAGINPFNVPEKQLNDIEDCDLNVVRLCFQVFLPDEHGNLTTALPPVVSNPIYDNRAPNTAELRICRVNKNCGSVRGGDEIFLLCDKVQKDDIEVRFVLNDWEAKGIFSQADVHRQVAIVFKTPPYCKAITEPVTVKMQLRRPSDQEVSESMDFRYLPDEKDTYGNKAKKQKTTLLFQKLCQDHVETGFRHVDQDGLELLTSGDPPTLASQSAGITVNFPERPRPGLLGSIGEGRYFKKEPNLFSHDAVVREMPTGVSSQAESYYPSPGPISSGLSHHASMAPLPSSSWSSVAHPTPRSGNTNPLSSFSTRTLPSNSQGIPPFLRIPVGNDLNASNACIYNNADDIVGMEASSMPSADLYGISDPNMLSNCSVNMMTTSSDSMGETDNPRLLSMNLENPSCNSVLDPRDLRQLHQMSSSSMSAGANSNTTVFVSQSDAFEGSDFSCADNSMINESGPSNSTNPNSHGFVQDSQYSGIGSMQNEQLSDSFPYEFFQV
UniProt Q9UBS8: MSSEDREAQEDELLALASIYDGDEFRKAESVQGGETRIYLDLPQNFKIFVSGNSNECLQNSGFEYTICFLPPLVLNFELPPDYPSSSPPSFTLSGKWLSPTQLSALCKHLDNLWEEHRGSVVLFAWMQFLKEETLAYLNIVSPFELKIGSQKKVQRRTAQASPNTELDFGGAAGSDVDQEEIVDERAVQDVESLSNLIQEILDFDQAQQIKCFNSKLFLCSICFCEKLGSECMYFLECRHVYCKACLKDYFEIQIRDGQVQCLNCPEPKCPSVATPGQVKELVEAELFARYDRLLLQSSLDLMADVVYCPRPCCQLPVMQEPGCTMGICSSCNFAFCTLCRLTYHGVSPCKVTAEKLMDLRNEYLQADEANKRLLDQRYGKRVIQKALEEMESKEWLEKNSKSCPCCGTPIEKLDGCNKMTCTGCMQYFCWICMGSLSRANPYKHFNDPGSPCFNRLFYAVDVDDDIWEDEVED
UniProt Q8WU17: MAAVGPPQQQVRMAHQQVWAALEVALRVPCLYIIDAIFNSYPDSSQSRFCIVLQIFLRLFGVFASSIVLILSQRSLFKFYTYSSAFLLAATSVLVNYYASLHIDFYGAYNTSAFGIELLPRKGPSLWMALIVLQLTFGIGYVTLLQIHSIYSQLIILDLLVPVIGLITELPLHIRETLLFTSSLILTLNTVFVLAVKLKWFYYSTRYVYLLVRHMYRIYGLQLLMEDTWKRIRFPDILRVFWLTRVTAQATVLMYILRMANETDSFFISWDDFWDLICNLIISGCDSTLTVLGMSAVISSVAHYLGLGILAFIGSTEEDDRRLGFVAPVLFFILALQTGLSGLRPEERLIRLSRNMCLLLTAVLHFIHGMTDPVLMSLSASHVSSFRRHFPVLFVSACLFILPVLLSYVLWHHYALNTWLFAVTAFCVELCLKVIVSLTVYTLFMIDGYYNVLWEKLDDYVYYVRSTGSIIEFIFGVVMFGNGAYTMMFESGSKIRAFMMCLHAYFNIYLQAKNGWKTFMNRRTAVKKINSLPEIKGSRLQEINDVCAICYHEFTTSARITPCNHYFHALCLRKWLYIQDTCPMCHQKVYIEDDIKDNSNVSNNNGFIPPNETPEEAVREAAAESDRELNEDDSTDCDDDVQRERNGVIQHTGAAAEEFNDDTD
UniProt P78332: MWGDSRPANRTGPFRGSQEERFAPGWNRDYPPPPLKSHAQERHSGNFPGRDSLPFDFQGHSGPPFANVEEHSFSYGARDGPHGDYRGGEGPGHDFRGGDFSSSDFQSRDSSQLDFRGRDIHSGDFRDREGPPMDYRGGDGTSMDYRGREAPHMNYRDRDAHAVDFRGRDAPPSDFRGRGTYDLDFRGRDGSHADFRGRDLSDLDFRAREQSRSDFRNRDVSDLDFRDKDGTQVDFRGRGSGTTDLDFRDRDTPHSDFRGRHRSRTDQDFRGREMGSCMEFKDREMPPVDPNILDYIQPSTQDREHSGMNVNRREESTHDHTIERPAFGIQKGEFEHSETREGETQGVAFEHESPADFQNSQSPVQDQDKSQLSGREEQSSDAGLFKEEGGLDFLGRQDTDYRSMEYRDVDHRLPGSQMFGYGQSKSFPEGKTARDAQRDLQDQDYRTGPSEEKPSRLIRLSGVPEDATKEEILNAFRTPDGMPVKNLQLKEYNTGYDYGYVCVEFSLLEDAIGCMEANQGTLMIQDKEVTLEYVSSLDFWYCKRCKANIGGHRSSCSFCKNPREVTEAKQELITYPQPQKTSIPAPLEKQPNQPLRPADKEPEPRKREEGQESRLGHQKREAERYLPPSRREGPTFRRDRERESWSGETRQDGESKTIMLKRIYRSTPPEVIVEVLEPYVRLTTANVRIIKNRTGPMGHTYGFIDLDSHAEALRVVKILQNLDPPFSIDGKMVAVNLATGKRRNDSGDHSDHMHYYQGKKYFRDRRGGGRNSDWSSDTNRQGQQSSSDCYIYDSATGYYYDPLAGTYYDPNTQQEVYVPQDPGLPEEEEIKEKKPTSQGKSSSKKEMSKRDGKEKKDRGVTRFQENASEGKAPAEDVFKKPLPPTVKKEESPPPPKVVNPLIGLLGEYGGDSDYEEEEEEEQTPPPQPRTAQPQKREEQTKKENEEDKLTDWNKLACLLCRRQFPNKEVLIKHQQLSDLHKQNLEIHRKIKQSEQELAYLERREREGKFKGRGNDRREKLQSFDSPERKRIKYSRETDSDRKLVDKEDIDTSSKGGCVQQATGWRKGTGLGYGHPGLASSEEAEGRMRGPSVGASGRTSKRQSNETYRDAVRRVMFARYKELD
UniProt Q8NDN9: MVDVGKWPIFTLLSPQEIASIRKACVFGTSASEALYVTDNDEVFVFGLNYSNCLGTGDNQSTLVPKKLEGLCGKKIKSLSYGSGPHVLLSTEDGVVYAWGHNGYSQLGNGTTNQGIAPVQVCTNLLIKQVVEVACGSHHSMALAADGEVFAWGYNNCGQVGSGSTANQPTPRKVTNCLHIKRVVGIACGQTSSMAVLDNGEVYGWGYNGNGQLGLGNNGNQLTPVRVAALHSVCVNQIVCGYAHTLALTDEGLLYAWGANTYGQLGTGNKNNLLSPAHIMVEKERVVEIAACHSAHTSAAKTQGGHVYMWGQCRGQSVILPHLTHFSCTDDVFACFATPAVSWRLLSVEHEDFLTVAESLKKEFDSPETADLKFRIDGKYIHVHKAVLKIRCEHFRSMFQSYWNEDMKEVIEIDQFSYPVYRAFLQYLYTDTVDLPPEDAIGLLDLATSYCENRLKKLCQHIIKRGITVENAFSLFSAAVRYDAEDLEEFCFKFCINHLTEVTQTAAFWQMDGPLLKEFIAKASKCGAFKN
UniProt Q4ADV7: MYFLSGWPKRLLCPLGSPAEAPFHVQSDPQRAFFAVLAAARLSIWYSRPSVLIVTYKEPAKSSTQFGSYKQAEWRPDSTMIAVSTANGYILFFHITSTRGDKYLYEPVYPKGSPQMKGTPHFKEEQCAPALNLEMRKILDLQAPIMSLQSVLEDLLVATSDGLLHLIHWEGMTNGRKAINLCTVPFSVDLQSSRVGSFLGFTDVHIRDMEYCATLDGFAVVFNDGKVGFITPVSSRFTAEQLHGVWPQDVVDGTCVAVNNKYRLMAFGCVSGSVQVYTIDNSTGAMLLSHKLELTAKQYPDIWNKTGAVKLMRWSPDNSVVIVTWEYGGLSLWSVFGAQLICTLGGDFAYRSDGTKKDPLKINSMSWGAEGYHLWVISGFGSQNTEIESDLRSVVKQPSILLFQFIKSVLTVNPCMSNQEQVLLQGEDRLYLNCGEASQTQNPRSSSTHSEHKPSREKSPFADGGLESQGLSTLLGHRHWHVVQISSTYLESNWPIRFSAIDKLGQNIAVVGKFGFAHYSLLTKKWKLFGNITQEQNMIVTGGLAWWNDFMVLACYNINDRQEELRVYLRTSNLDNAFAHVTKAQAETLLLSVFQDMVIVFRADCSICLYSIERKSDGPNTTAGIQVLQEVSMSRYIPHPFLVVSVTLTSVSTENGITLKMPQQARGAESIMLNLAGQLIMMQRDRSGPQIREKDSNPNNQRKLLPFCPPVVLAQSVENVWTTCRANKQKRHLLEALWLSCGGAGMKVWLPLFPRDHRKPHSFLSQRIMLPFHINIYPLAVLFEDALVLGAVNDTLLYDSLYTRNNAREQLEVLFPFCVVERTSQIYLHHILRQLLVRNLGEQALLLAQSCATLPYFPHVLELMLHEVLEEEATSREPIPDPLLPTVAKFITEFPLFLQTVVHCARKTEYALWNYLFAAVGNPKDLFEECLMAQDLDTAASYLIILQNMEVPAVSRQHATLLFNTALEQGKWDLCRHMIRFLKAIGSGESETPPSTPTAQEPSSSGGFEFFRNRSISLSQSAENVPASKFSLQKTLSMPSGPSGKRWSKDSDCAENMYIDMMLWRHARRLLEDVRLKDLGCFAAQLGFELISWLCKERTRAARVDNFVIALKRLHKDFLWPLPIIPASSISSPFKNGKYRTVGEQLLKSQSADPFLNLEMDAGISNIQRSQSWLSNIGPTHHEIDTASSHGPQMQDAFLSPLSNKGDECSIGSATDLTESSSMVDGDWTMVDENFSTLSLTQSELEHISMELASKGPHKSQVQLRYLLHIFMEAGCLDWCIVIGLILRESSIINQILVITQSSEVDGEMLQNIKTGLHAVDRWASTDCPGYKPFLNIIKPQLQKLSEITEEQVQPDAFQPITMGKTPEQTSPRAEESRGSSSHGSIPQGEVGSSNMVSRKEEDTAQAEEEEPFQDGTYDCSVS
UniProt Q8NC44: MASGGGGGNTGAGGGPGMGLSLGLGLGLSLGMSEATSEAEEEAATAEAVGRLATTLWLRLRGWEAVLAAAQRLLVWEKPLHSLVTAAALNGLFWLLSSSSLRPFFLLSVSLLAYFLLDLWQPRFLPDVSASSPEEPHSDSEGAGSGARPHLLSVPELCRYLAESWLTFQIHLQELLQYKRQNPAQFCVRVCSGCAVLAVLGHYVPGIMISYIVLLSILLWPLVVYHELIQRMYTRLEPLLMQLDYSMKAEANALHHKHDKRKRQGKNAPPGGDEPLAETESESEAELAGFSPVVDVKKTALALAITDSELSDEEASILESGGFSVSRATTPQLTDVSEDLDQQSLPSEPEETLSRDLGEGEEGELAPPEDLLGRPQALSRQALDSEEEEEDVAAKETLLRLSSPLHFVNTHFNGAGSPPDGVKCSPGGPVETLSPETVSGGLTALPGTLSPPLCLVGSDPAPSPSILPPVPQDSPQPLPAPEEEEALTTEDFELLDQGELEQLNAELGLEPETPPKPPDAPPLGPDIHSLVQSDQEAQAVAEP
UniProt Q5RL73: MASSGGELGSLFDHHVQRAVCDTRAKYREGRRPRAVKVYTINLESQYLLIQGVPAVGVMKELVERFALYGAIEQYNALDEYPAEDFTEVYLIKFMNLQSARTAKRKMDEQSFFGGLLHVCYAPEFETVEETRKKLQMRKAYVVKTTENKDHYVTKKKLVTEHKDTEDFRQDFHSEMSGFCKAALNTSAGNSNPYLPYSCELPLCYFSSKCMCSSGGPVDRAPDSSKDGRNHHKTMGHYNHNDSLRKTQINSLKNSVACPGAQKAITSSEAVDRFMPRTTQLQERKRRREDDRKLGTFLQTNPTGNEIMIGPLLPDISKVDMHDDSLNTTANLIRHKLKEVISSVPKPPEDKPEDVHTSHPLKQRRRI
UniProt Q8NBN7: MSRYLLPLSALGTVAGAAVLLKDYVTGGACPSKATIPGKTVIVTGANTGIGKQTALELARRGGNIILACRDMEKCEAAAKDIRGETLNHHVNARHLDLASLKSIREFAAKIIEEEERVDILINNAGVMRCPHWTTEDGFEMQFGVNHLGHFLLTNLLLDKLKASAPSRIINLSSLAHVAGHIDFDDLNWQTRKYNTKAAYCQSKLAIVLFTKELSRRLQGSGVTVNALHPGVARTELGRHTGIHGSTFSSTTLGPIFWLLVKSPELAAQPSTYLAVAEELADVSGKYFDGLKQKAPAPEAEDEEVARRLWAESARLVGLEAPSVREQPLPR
UniProt Q9BQY4: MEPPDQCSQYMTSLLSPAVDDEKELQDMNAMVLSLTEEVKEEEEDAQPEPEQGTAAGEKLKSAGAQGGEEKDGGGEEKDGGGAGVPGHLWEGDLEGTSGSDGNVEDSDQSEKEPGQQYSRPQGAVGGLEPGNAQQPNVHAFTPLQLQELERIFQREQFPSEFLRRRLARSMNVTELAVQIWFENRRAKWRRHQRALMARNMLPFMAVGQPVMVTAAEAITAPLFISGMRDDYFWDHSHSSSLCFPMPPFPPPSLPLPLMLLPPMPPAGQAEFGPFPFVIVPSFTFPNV
UniProt Q92963, whole entry, looked up: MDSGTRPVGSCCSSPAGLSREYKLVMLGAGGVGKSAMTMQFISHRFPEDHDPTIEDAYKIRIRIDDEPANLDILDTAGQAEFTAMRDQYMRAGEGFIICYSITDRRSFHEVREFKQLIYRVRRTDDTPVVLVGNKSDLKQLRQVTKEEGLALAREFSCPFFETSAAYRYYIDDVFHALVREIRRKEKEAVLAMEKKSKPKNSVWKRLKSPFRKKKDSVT

[2] = compound: C[C@@H](Oc1cc(-c2cnn(C3CCNCC3)c2)cnc1N)c1c(Cl)ccc(F)c1Cl [crizotinib]
Summary of the method: as §1

[3] = compound: C[C@@H]1COCCN1C2=NC(=NC(=C2)C3(CC3)S(=O)(=O)C)C4=C5C=CNC5=CC=C4
Summary of the method: as §1

[4] = compound: C[C@H](C1=CC=C(C=C1)C(=O)NC2=C3C=CNC3=NC=C2)N
Summary of the method: as §1

[5] = compound: Cc1cc(Nc2cc(CN3CCOCC3)c3nc(C)c(Cc4ccc(Cl)cc4F)n3n2)n[nH]1 [gandotinib]
Summary of the method: as §1

[6] = compound: Cc1cc(SCc2sc(-c3ccc(C(F)(F)F)cc3)nc2C)ccc1OCC(=O)O
Summary of the method: as §1

[7] = compound: Cc1ccc(-n2nc(C(C)(C)C)cc2NC(=O)Nc2ccc(OCCN3CCOCC3)c3ccccc23)cc1 [doramapimod]
Summary of the method: as §1

[8] = compound: Cc1ccc(C(=O)N(CCCN)[C@@H](c2nc3cc(Cl)ccc3c(=O)n2Cc2ccccc2)C(C)C)cc1 [ispinesib]
Summary of the method: as §1

[9] = compound: Cc1ccc(NC(=O)c2ccc(CN3CC[C@H](N(C)C)C3)c(C(F)(F)F)c2)cc1Nc1nccc(-c2cncnc2)n1 [bafetinib]
Summary of the method: as §1

[10] = compound: Cc1cccc(CC(=O)N2CCc3c2ccc(-c2cn(C)c4ncnc(N)c24)c3F)n1
Summary of the method: as §1

[11] = compound: Cc1cn(-c2cc(NC(=O)c3ccc(C)c(Nc4nccc(-c5cccnc5)n4)c3)cc(C(F)(F)F)c2)cn1 [nilotinib]
Summary of the method: as §1

[12] = compound: Cc1nc(Nc2n[nH]c3c2CN(C(=O)N[C@H](CN(C)C)c2ccccc2)C3(C)C)c2sccc2n1
Summary of the method: as §1

[13] = compound: Cc1nc(Nc2ncc(C(=O)Nc3c(C)cccc3Cl)s2)cc(N2CCN(CCO)CC2)n1 [dasatinib]
Summary of the method: as §1

[14] = compound: Cc1ncc(-c2ccnc(Nc3ccc(S(C)(=O)=O)cc3)n2)n1C(C)C
Summary of the method: as §1

[15] = compound: Cn1cc(-c2ccc3c(c2)CCN3C(=O)Cc2cccc(C(F)(F)F)c2)c2c(N)ncnc21
Summary of the method: as §1

[16] = compound: Cn1cc(-c2ccc3nnc(C(F)(F)c4ccc5ncccc5c4)n3n2)cn1
Summary of the method: as §1

[17] = compound: Cn1cncc1[C@@](N)(c1ccc(Cl)cc1)c1ccc2c(c1)c(-c1cccc(Cl)c1)cc(=O)n2C [tipifarnib]
Summary of the method: as §1

[18] = compound: FC(F)(F)c1ccc(/C=C/c2nc(COc3ccc(CCCCn4ccnn4)cc3)co2)cc1 [mubritinib]
Summary of the method: as §1

[19] = compound: Cc1cc(Nc2cc(N3CCN(C)CC3)nc(Sc3ccc(NC(=O)C4CC4)cc3)n2)n[nH]1 [tozasertib]
Summary of the method: as §1

[20] = compound: C[C@H](Nc1ncnc2nc[nH]c12)c1cc2cccc(Cl)c2c(=O)n1-c1ccccc1 [duvelisib]
Summary of the method: as §1

Measured: log2 fold change

REL (UniProt Q04864)
inactive: [1] 0.079 | [2] -0.04 | [3] 0.005 | [4] 0.02 | [5] -0.321 | [6] 0.028 | [7] -0.003 | [8] -0.088 | [9] -0.185 | [10] 0.03 | [11] -0.094 | [13] -0.115 | [14] -0.018 | [15] 0.013 | [16] 0.059 | [17] -0.011 | [18] 0.034
active: [12] -0.438

RNF141 (UniProt Q8WVD5)
inactive: [1] 0.095 | [2] 0.101 | [5] -0.023 | [19] 0.097 | [7] 0.001 | [8] 0.258 | [9] -0.09 | [10] -0.328 | [11] -0.064 | [12] -0.009 | [14] -0.281 | [16] -0.06 | [17] 0.003

RNF14 (UniProt Q9UBS8)
inactive: [1] 0.034 | [2] 0.014 | [3] 0.081 | [4] -0.053 | [5] 0.001 | [6] 0.041 | [7] -0.025 | [8] -0.032 | [9] -0.033 | [10] 0.05 | [11] -0.002 | [12] -0.07 | [13] -0.136 | [14] -0.048 | [15] -0.017 | [16] 0.033 | [17] -0.05 | [18] 0.017

RMC1 (UniProt Q96DM3)
active: [2] -0.509 | [8] -0.254
inactive: [1] 0.021 | [3] 0.061 | [4] -0.012 | [5] 0.027 | [6] 0.066 | [7] 0.038 | [9] -0.043 | [10] 0.072 | [11] -0.032 | [12] -0.047 | [13] -0.063 | [14] -0.082 | [15] 0.03 | [16] -0.016 | [17] 0.045 | [18] 0.012

RNF139 (UniProt Q8WU17)
inactive: [1] -0.094 | [2] 0.025 | [3] 0.021 | [5] 0.156 | [19] 0 | [7] 0 | [8] 0.032 | [9] -0.042 | [10] 0.123 | [11] -0.032 | [12] 0.027 | [14] 0.016 | [16] -0.181 | [18] -0.005

RBM6 (UniProt P78332)
inactive: [1] 0 | [2] 0.148 | [4] 0.013 | [5] -0.043 | [6] -0.183 | [7] 0.032 | [10] -0.048 | [11] 0.062 | [12] -0.109 | [13] 0.025 | [14] -0.194 | [15] -0.052 | [17] 0.028 | [18] -0.072

RNF167 (UniProt Q9H6Y7)
inactive: [1] 0.087 | [2] -0.133 | [3] -0.097 | [4] 0.082 | [5] -0.045 | [6] 0.018 | [7] -0.056 | [9] -0.049 | [10] -0.012 | [11] 0.049 | [12] -0.014 | [13] 0.039 | [14] 0.025 | [15] -0.068 | [16] 0.032 | [17] 0.008 | [18] 0.001
active: [8] -0.668

RCBTB1 (UniProt Q8NDN9)
inactive: [1] -0.128 | [3] -0.001 | [4] 0.172 | [20] -0.238 | [6] 0.175 | [9] 0.147 | [13] -0.081 | [15] -0.071

RCOR1 (UniProt Q9UKL0)
inactive: [1] 0.011 | [2] -0.033 | [3] 0.095 | [4] 0.071 | [5] -0.046 | [6] 0.041 | [7] 0.001 | [8] -0.031 | [9] 0.011 | [10] 0.021 | [11] -0.034 | [12] -0.107 | [13] -0.063 | [14] -0.062 | [15] -0.005 | [16] 0.033 | [17] -0.087 | [18] 0.07

RERE (UniProt Q9P2R6)
inactive: [1] 0.102 | [2] 0.139 | [3] -0.195 | [7] 0.054 | [8] -0.37 | [9] 0 | [11] 0.018 | [12] -0.077 | [14] 0 | [16] 0.017 | [18] -0.05

RETREG3 (UniProt Q86VR2)
active: [8] -0.459
inactive: [1] 0.016 | [2] -0.076 | [3] 0.081 | [4] 0.024 | [5] 0.007 | [6] 0.033 | [7] -0.052 | [9] -0.164 | [10] -0.032 | [11] 0.015 | [12] 0.003 | [13] -0.045 | [14] 0.033 | [15] -0.007 | [16] 0.11 | [17] -0.034 | [18] 0

RIC1 (UniProt Q4ADV7)
inactive: [1] 0.106 | [2] -0.159 | [3] 0.079 | [20] 0.101 | [5] -0.007 | [6] 0.185 | [7] -0.004 | [8] 0.142 | [9] -0.423 | [10] 0.219 | [11] 0.17 | [12] 0.025 | [13] -0.051 | [14] -0.02 | [16] -0.155 | [17] -0.027 | [18] 0.061

RFX5 (UniProt P48382)
inactive: [1] 0.043 | [2] -0.267 | [3] 0.053 | [5] -0.069 | [7] 0.031 | [8] -0.093 | [9] -0.083 | [10] 0.034 | [11] 0.205 | [12] -0.174 | [14] -0.193 | [16] -0.095 | [17] 0.017

RETREG2 (UniProt Q8NC44)
inactive: [1] -0.054 | [2] -0.025 | [4] -0.196 | [20] 0.061 | [19] -0.01 | [6] -0.002 | [7] -0.116 | [8] -0.044 | [9] -0.113 | [11] -0.042 | [12] 0.026 | [13] -0.092 | [14] -0.004 | [15] 0.006 | [16] 0.078 | [17] 0.012 | [18] -0.081

RBM48 isoform 2 (UniProt Q5RL73)
inactive: [1] 0.081 | [2] 0.25 | [3] -0.069 | [4] -0.06 | [5] 0.152 | [7] 0.041 | [8] 0.072 | [9] 0.118 | [10] -0.012 | [11] 0.13 | [12] -0.006 | [14] -0.034 | [15] 0.047 | [16] -0.457 | [17] 0.127

RDH13 (UniProt Q8NBN7)
active: [8] -0.322
inactive: [1] 0.04 | [2] -0.231 | [3] 0.161 | [4] -0.019 | [5] -0.08 | [6] 0.029 | [7] -0.037 | [9] -0.068 | [10] -0.03 | [11] 0.011 | [12] -0.044 | [13] -0.131 | [14] 0.019 | [15] 0.027 | [16] 0.016 | [17] 0.022 | [18] -0.032

RHOXF2 (UniProt Q9BQY4)
active: [10] -0.215
inactive: [1] 0.027 | [2] 0.001 | [3] 0.073 | [4] 0.018 | [5] -0.045 | [6] -0.092 | [7] 0.008 | [8] 0.009 | [9] -0.05 | [11] 0.009 | [12] -0.007 | [13] 0.053 | [14] -0.058 | [15] 0.008 | [16] -0.035 | [17] 0.048 | [18] 0.06

RIT1 isoform 3 (UniProt Q92963)
inactive: [2] 0.078 | [3] -0.138 | [5] -0.016 | [7] -0.009 | [10] -0.074

RGS14 (UniProt O43566)
inactive: [3] 0.09 | [4] 0.478 | [5] 0.023 | [19] -0.239 | [8] -0.124 | [9] -0.331 | [10] 0.058 | [11] -0.233 | [12] 0.194 | [14] -0.053 | [15] -0.02 | [16] -0.03 | [18] 0.025

2 entries picked at random from the list so far:
RHOXF2 (UniProt Q9BQY4)
active: [10] -0.215
inactive: [1] 0.027 | [2] 0.001 | [3] 0.073 | [4] 0.018 | [5] -0.045 | [6] -0.092 | [7] 0.008 | [8] 0.009 | [9] -0.05 | [11] 0.009 | [12] -0.007 | [13] 0.053 | [14] -0.058 | [15] 0.008 | [16] -0.035 | [17] 0.048 | [18] 0.06

RIT1 isoform 3 (UniProt Q92963)
inactive: [2] 0.078 | [3] -0.138 | [5] -0.016 | [7] -0.009 | [10] -0.074

Source: the supplement of paper PMC10849652
